Whole data set: some 1,900 compounds, median “excess over highest single agent (ExcessHSA) synergy score, 6x6 matrix” near -83, cut for the lowest 2% near -370. Some of the results follow.

The assay deals with NCI-H446. The assay is described as follows: excess over highest single agent (ExcessHSA) synergy score, 6x6 matrix; higher = less synergy (more negative = stronger synergy). As to conditions: 72 h; CellTiter-Glo viability. (In general: ATP-based viability assays read luminescence as a measure of living cells.)
On to `COC1CCC(C(=O)c2ccc3nc4c(cc3c2)CCCO4)CC1` (stereo not given) + Cc1sc2c(c1C)C(c1ccc(Cl)cc1)=N[C@@H](CC(=O)OC(C)(C)C)c1nnc(C)n1-2 [NCGC00250412-19], for which the “excess over highest single agent” value is -20.6.

For `NC(=O)C1CCCc2c1[nH]c1ccc(Cl)cc21` (stereo not given) + Cc1sc2c(c1C)C(c1ccc(Cl)cc1)=N[C@@H](CC(=O)OC(C)(C)C)c1nnc(C)n1-2 [NCGC00250412-19], the “excess over highest single agent” value was -52.9.

For `COC(=O)[C@H](Cc1ccccc1)NC(=O)[C@@H](N)CC(=O)O` + Cc1sc2c(c1C)C(c1ccc(Cl)cc1)=N[C@@H](CC(=O)OC(C)(C)C)c1nnc(C)n1-2 [NCGC00250412-19], the “excess over highest single agent” value was -46.3.

`CCS(=O)(=O)c1cccc(-c2cc(C(=O)NC3CCN(C)CC3)c(C)c3[nH]c4ncc(C)cc4c23)c1` + Cc1sc2c(c1C)C(c1ccc(Cl)cc1)=N[C@@H](CC(=O)OC(C)(C)C)c1nnc(C)n1-2 [NCGC00250412-19]: the “excess over highest single agent” value is -197.

Turning to `OCCn1cc(-c2ccc3c(c2)CC/C3=N\O)c(-c2ccncc2)n1` + Cc1sc2c(c1C)C(c1ccc(Cl)cc1)=N[C@@H](CC(=O)OC(C)(C)C)c1nnc(C)n1-2 [NCGC00250412-19], the “excess over highest single agent” value was -137.

Regarding `N#Cc1c(N(CC(=O)O)CC(=O)O)sc(C(=O)O)c1CC(=O)O` + Cc1sc2c(c1C)C(c1ccc(Cl)cc1)=N[C@@H](CC(=O)OC(C)(C)C)c1nnc(C)n1-2 [NCGC00250412-19], the “excess over highest single agent” value is -47.5.

For the compound `CC[C@H]1OC(=O)[C@H](C)[C@@H](O[C@H]2C[C@@](C)(OC)[C@@H](O)[C@H](C)O2)[C@H](C)[C@@H](O[C@@H]2O[C@H](C)C[C@H](N(C)C)[C@H]2O)[C@](C)(O)C[C@@H](C)CN(C)[C@H](C)[C@@H](O)[C@]1(C)O` + Cc1sc2c(c1C)C(c1ccc(Cl)cc1)=N[C@@H](CC(=O)OC(C)(C)C)c1nnc(C)n1-2 [NCGC00250412-19], the “excess over highest single agent” value was -39.5.

Turning to `CCOC(=O)C1=C(C)NC(=S)NC1c1cccc(O)c1` (stereo not given) + Cc1sc2c(c1C)C(c1ccc(Cl)cc1)=N[C@@H](CC(=O)OC(C)(C)C)c1nnc(C)n1-2 [NCGC00250412-19], the “excess over highest single agent” value is -88.8.

Regarding `O=C(O)c1cccc(-c2noc(-c3ccccc3F)n2)c1` + Cc1sc2c(c1C)C(c1ccc(Cl)cc1)=N[C@@H](CC(=O)OC(C)(C)C)c1nnc(C)n1-2 [NCGC00250412-19], the “excess over highest single agent” value is -23.4.

Consider `CC(C)[N+]1(C)[C@@H]2CC[C@H]1C[C@@H](OC(=O)C(CO)c1ccccc1)C2` (stereo not given in full) + Cc1sc2c(c1C)C(c1ccc(Cl)cc1)=N[C@@H](CC(=O)OC(C)(C)C)c1nnc(C)n1-2 [NCGC00250412-19], for which the “excess over highest single agent” value was found to be 17.3.

In the case of `Cc1ccc(-c2cc(C(F)(F)F)nn2-c2ccc(S(N)(=O)=O)cc2)cc1` + Cc1sc2c(c1C)C(c1ccc(Cl)cc1)=N[C@@H](CC(=O)OC(C)(C)C)c1nnc(C)n1-2 [NCGC00250412-19], the “excess over highest single agent” value is -197.

As to `CCOC(=O)[C@@H](C)Oc1cccc2c(=O)n(CC(=O)Nc3ccc4c(c3)OCCO4)ccc12` + Cc1sc2c(c1C)C(c1ccc(Cl)cc1)=N[C@@H](CC(=O)OC(C)(C)C)c1nnc(C)n1-2 [NCGC00250412-19], the “excess over highest single agent” value was -46.9.

With `CO[C@H]1CC[C@@H](O[C@H]2C[C@H]([C@]3(C)CC[C@]4(C[C@H](O)[C@@H](C)[C@@H]([C@@H](C)/C=C(\C)C(=O)[C@H](C)C[C@H](C)C(=O)O)O4)O3)O[C@]3(O[C@@H]([C@H]4O[C@@](O)(CO)[C@H](C)C[C@@H]4C)C[C@@H]3C)[C@@H]2C)O[C@@H]1C` + Cc1sc2c(c1C)C(c1ccc(Cl)cc1)=N[C@@H](CC(=O)OC(C)(C)C)c1nnc(C)n1-2 [NCGC00250412-19], the “excess over highest single agent” value was -220.

With `Cc1c(-c2ccc(O)cc2)n(Cc2ccc(OCCN3CCCCCC3)cc2)c2ccc(O)cc12` + Cc1sc2c(c1C)C(c1ccc(Cl)cc1)=N[C@@H](CC(=O)OC(C)(C)C)c1nnc(C)n1-2 [NCGC00250412-19], the “excess over highest single agent” value is -207.

Regarding `NC[C@H](O)c1ccc(O)c(O)c1` + Cc1sc2c(c1C)C(c1ccc(Cl)cc1)=N[C@@H](CC(=O)OC(C)(C)C)c1nnc(C)n1-2 [NCGC00250412-19], the “excess over highest single agent” value is -87.8.

`C=Cc1c(C)c2cc3nc(cc4[nH]c(cc5nc(cc1[nH]2)C(C)=C5CCC(=O)O)c(CCC(=O)OC)c4C)[C@@]1(C)C3=CC=C(C(=O)OC)[C@H]1C(=O)OC` + Cc1sc2c(c1C)C(c1ccc(Cl)cc1)=N[C@@H](CC(=O)OC(C)(C)C)c1nnc(C)n1-2 [NCGC00250412-19]: the “excess over highest single agent” value was 17.6.

Turning to `CN(C)CC/C=C1/c2ccccc2COc2ccc(CC(=O)O)cc21` + Cc1sc2c(c1C)C(c1ccc(Cl)cc1)=N[C@@H](CC(=O)OC(C)(C)C)c1nnc(C)n1-2 [NCGC00250412-19], the “excess over highest single agent” value is -97.6.

Consider `CC1=C2C[C@H]3[C@@H](CC=C4C[C@@H](O)CC[C@@]43C)[C@@H]2CC[C@]12O[C@@H]1C[C@H](C)CN[C@H]1[C@H]2C` + Cc1sc2c(c1C)C(c1ccc(Cl)cc1)=N[C@@H](CC(=O)OC(C)(C)C)c1nnc(C)n1-2 [NCGC00250412-19], for which the “excess over highest single agent” value came out at 144.

With `C[C@H](NC(=O)C(=O)Nc1ccccc1C(C)(C)C)C(=O)N[C@@H](CC(=O)O)C(=O)COc1c(F)c(F)cc(F)c1F` + Cc1sc2c(c1C)C(c1ccc(Cl)cc1)=N[C@@H](CC(=O)OC(C)(C)C)c1nnc(C)n1-2 [NCGC00250412-19], the “excess over highest single agent” value came to 15.5.

In the case of `C[C@@H]1CN(Cc2ccc(F)cc2)[C@@H](C)CN1C(=O)c1cc2c(C(=O)C(=O)N(C)C)cn(C)c2cc1Cl` + Cc1sc2c(c1C)C(c1ccc(Cl)cc1)=N[C@@H](CC(=O)OC(C)(C)C)c1nnc(C)n1-2 [NCGC00250412-19], the “excess over highest single agent” value amounted to 110.

Turning to `O=C1CCCC(=O)C1C(=O)c1ccc(C(F)(F)F)cc1[N+](=O)[O-]` + Cc1sc2c(c1C)C(c1ccc(Cl)cc1)=N[C@@H](CC(=O)OC(C)(C)C)c1nnc(C)n1-2 [NCGC00250412-19], the “excess over highest single agent” value was -184.

As to `Cc1ccc(-n2nc(C(C)(C)C)cc2NC(=O)Nc2ccc(OCCN3CCOCC3)c3ccccc23)cc1` + Cc1sc2c(c1C)C(c1ccc(Cl)cc1)=N[C@@H](CC(=O)OC(C)(C)C)c1nnc(C)n1-2 [NCGC00250412-19], the “excess over highest single agent” value was -49.7.

On to `C/C=C/C/C=C/CCC(=O)[C@H]1O[C@H]1C(N)=O` + Cc1sc2c(c1C)C(c1ccc(Cl)cc1)=N[C@@H](CC(=O)OC(C)(C)C)c1nnc(C)n1-2 [NCGC00250412-19], for which the “excess over highest single agent” value was 42.2.

As to `CNC(=O)c1ccc(C)c(-n2c(C)cc(OCc3ccc(F)cc3F)c(Br)c2=O)c1` + Cc1sc2c(c1C)C(c1ccc(Cl)cc1)=N[C@@H](CC(=O)OC(C)(C)C)c1nnc(C)n1-2 [NCGC00250412-19], the “excess over highest single agent” value was -96.4.

For `N#C/C(=C(/O)c1ccc(Cl)cc1Cl)c1nc2cc(Cl)ccc2c(=O)[nH]1` + Cc1sc2c(c1C)C(c1ccc(Cl)cc1)=N[C@@H](CC(=O)OC(C)(C)C)c1nnc(C)n1-2 [NCGC00250412-19], the “excess over highest single agent” value is -216.

For the compound `CN[C@@H](C)C(=O)N[C@H]1CCCC[C@H]2CC[C@@H](C(=O)N[C@@H](c3ccccc3)c3cn(CCCCc4ccc(CCCCn5cc([C@@H](NC(=O)[C@@H]6CC[C@@H]7CCCC[C@H](NC(=O)[C@H](C)NC)C(=O)N76)c6ccccc6)nn5)cc4)nn3)N2C1=O` + Cc1sc2c(c1C)C(c1ccc(Cl)cc1)=N[C@@H](CC(=O)OC(C)(C)C)c1nnc(C)n1-2 [NCGC00250412-19], the “excess over highest single agent” value was -208.

As for `CC(C)C[C@H](NC(=O)CNC(=O)c1cc(Cl)ccc1Cl)B1OC(=O)C(CC(=O)O)(CC(=O)O)O1` + Cc1sc2c(c1C)C(c1ccc(Cl)cc1)=N[C@@H](CC(=O)OC(C)(C)C)c1nnc(C)n1-2 [NCGC00250412-19], the “excess over highest single agent” value was -240.

As to `CCN(CC)CCCCNc1ncc2cc(-c3cc(OC)cc(OC)c3)c(NC(=O)NC(C)(C)C)nc2n1` + Cc1sc2c(c1C)C(c1ccc(Cl)cc1)=N[C@@H](CC(=O)OC(C)(C)C)c1nnc(C)n1-2 [NCGC00250412-19], the “excess over highest single agent” value was -104.

Consider `CC(C)(O)Cn1c(NC(=O)c2ccc(-c3cn[nH]c3)s2)nc2cc(CN3CCOCC3)ccc21` + Cc1sc2c(c1C)C(c1ccc(Cl)cc1)=N[C@@H](CC(=O)OC(C)(C)C)c1nnc(C)n1-2 [NCGC00250412-19], for which the “excess over highest single agent” value is -423.

For `CCCOc1ccc(C(=O)OCCN(CC)CC)cc1N` + Cc1sc2c(c1C)C(c1ccc(Cl)cc1)=N[C@@H](CC(=O)OC(C)(C)C)c1nnc(C)n1-2 [NCGC00250412-19], the “excess over highest single agent” value was 83.1.

For `Cc1cc(SCc2sc(-c3ccc(C(F)(F)F)cc3)nc2C)ccc1OCC(=O)O` + Cc1sc2c(c1C)C(c1ccc(Cl)cc1)=N[C@@H](CC(=O)OC(C)(C)C)c1nnc(C)n1-2 [NCGC00250412-19], the “excess over highest single agent” value is -98.3.

Regarding `CCOc1cc2c(c(F)c1OCC)C(=N)N(CC(=O)c1cc(N3CCOCC3)c(OC)c(C(C)(C)C)c1)C2` + Cc1sc2c(c1C)C(c1ccc(Cl)cc1)=N[C@@H](CC(=O)OC(C)(C)C)c1nnc(C)n1-2 [NCGC00250412-19], the “excess over highest single agent” value was -86.3.

Turning to `Oc1cccc(-c2nc(N3CCOCC3)c3oc4ncccc4c3n2)c1` + Cc1sc2c(c1C)C(c1ccc(Cl)cc1)=N[C@@H](CC(=O)OC(C)(C)C)c1nnc(C)n1-2 [NCGC00250412-19], the “excess over highest single agent” value was -410.

Turning to `Cc1ccc2nc(NC(=O)CSc3nc4c(c(=O)n3-c3ccccc3)SCC4)sc2c1` + Cc1sc2c(c1C)C(c1ccc(Cl)cc1)=N[C@@H](CC(=O)OC(C)(C)C)c1nnc(C)n1-2 [NCGC00250412-19], the “excess over highest single agent” value was 84.8.

As to `C#C[C@]1(O)CC[C@H]2[C@@H]3CCC4=CC(=O)CC[C@@H]4[C@H]3CC[C@@]21CC` + Cc1sc2c(c1C)C(c1ccc(Cl)cc1)=N[C@@H](CC(=O)OC(C)(C)C)c1nnc(C)n1-2 [NCGC00250412-19], the “excess over highest single agent” value came to 85.1.

The values are drawn from the supplement of paper PMC10077471.
